From publication doi:10.1101/523670
No constants are given. Whether binding was seen depends on the method and setting. In cells and extracts the contact can be indirect. A yes stands for co-enrichment or nearness to the bait. Other partners may have been found. No binding means not detected with the bait. Values belong to the binder of their own block, whether it stands above or below them.

Biological target: Chm7-GFP (endogenously expressed) (S. cerevisiae)
Test: affinity purification with mass spectrometry

binding: binds
B2: Snf7 (protein, UniProt P39929 1-240)
chain: MWSSLFGWTSSNAKNKESPTKAIVRLREHINLLSKKQSHLRTQITNQENEARIFLTKGNKVMAKNALKKKKTIEQLLSKVEGTMESMEQQLFSIESANLNLETMRAMQEGAKAMKTIHSGLDIDKVDETMDEIREQVELGDEISDAISRPLITGANEVDEDELDEELDMLAQENANQETSKIVNNNVNAAPISENKVSLPSVPSNKIKQSENSVKDGEEEEDEEDEDEKALRELQAEMGL

binding: no binding
B4: Heh2 (protein, UniProt Q03281 1-663)
chain: MDHRNLDPKTLKVSQLRRVLVENDVAFPANARKPVLVKLFEEKVRQRLQSSPEASKVRTSIQKVVKSGAKNADRKKTLKSKKLESSSSESKTVKDENVETNKRKREQISTDNEAKMQIQEEKSPKKKRKKRSSKANKPPESPPQSKSDGKATSADLTSELETVEELHKKDSSDDKPRVKELPKPELPNLKVSNEFLAQLNKELASAATENYDHSIKSTDLSSIRIETEEPVGPSTGAETRNESEVMENINLEVQPEVKEAKEELTKISETFDNQDEEDTSRLSSKKNIRSPKGRTRHFIANKTKRGIDIMKPFIAHLFIWLWNGAIFLSIICPILFGLWYREQRIQVGYCGHEKPLKSLAISAFPQTERVDSVLQAYRPNCLECPEHGICSSFMNVECEPGYEPKSSILETYGIIPFPKYCAKDESKEKEVDELVWKVNEYLKKKNAQHECGEGENLFESGETETKLYDIFSHSRPSWESQREFNDHWKNVLEILKKKDDIIWLPLDFETNGKREKSKSNNTNYIYRSTSKKWVTLQCHLEGDIQEYITKYGGSLFITLGVLFLIKKIQSTLDNYVQGEQIIEKLVKEAIDKLKDVKKNKGEEPFLTTVQLRATLLSDIPNIKEQNNLWAQTKEKIMKEQSENIELYLLEENGEIMTCWEWKE

The remaining lines, values behind:

B1: Heh1 (protein, UniProt Q03707 1-834)
chain: MNSDLEYLEDGFDPNSMKVATLRRILVENNVDFPSNARKNALVGLFDEKVKPQIPQLRKMYLNVRPSDEGIVKMDRPSSSPSIASPRRSRRARREKSASPMAKQFKKNRILDDVSNDDDDDDDDDDDNDKKDDPLIVPSGTDTDEVDDEEDDVITSSSNKSDTNDFQQNSDTRKKRKDPDSDDWSESNSKENKIDNKHLNLLSSDSEIEQDYQKAKKRKTSDLNQEHGNGSAILGKLSVKTPIKNTNRKPVSMDNFNDSLTSSGTENDPFVPNIRHNPKELGTANGTGHSTPLSKLKVSASFADKLPQKEVPSTILVPEVEQQEPSQSERTPSLFSSEGSGSESEAPLLPEITTPGPHQPMGNTSNNVVEMIDTDSSNLVSDEDEVLVPTRIETPQLPTEKDVEKCEARVQELQEEVNEQLEHENGSEFDVKQGSGKVGNRHKFKRALKFLSKSLLALFLFCIFIVIPLLFGLWYREQRLLIGYCGHEVPSHRVSGNSFEFIQKLDNLLQDYRPKCIPCPPNGICYPYLKLKCKPDYKLAPSRLDFLEIIPAQGKCVKDDKKQQLVSEVVEKSLEFLRAKNAQISCGDGKDDIESGMTEDALYQIFNEARAPWIRDDEFEDLWIQVIKDLTEEPEILWRQLSPTDNNIGGNSNNIIKTNDVPRQKRHLPEKFISKTRNFRSTSKKYIGMKCRFEREIYQTYKKFQRPIWLMFLLIVISKVIEIKLKNYYRKKARIEELVTQTMEKLKFQKIKSMSDPKENAYLSIVQLRDIFLSDIVDLKYKNQLWSEVVKYLEHNNSNIKSNLTEIRGEIMKCWEWIGPMELNEPKDSAENKI
binding: binds

B3: Vps20 (protein, UniProt Q04272 1-221)
chain: MGQKSSKVHITKTDRAILEVKRSKDEIHKFTRRTDNLILVEKSQLKDLIRKNPENYKSNMKVRFLLKRIHYQEHLLQQASDQLINLENMVSTLEFKMVEKQFINGLKNGNEILKKLNKEFSNVDELMDDVQDQIAYQNEINETLSRSLVGTSNYEDDLDKELDALESELNPEKMNNAKVANMPSTEGLPSLPQGEQTEQKEREEFATEERSDTKEPLALLS
binding: binds

B5: Nur1 (protein, UniProt Q12066 1-484)
chain: MGSNDLINEAYDDSEVVGEERESKSAWMKRWYQLLTSPLDLQLVINEKLEMINWDAYAKSLAKPLGNFLTILFFIIRLLQDNLIKPNYYKLNVKSGAFDLSKSNKLKEFDYLWEISSSFQNNNQFYAFQSWYFVTLRFLNNLFRFTIFILLSLNLYVSCKFMFGYFKTYNLFHLKKEFNSPNLTKHNLKDLSKEYYEDIYKQSLWSMLKHFFRGSRDDGPHVNQNEDEIFFQLRKWIPTNFMINLFVSFSPTAIVFLSFSDVSFTSAIAIVFHQYILDYIITKRFQRSVDDDLILSSAALQEYEDKHIMARINQCSNIDTLSSAMGTRSKTPRIFTTHSLCGEEIREVYNYEKREFEALPKMTESVPGSRETRIKDYGGISQVSDHQSHPIGFHYSPRMSPYYRDKVLDNNLAQSSSNENLEKGGAYLPNQDQNRPSKSLSPLRKTPLSARQKRFEGSEFNVLNKNDINSILRSPKKKKNYHKR
binding: binds
